Structures can show the parent of a compound that is named as a salt. This is one part of the list. This data set is noisy: repeats of one test often differ as much as different tests do.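 ReNCell VM, a human fetal ventral-midbrain neural progenitor line, was differentiated without mitogens. Blinded raters scored images stained for doublecortin (early neurons) or tyrosine hydroxylase (dopaminergic neurons) against untreated wells (0 = no change). Scores were averaged across repeats and both raters, and compounds averaging 2 or more were selected as hits for retesting.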 *1 amine or outer side, *2 acyl side, *3 side chain or, on linkers, in order; H or OH if unused. Where a SMILES comes first, the peptide text is derived from it. Bridges are numbered along the chain shown (N, C = ends). [ ]: non-standard residue; d: D form. The star is where a group is joined. X1 = NC1=N[C@@H]([C@H](N[*:1])C(=O)[*:2])C[C@H](O)N1; ΔAla(Z-3-ureido) = NC(=O)N/C=C(\N)C(=O)O; β3hOrn = NCCC[C@H](N)CC(=O)*; Dap = NC[C@H](N)C(=O)O
Assays:
[1] = test system: ReNCell VM; assay: neuronal differentiation score (DCX+ cell fraction vs untreated, manual image score) (score (-3 to 3)); higher = more neuronal differentiation; conditions: 2 uM, 2 weeks
[2] = test system: ReNCell VM; assay: dopaminergic neuron differentiation score (TH+ cell fraction vs untreated, manual image score) (score (0 to 3)); higher = more TH+ dopaminergic neuron differentiation; conditions: 2 uM, 4 weeks, BDNF 10 ng/ml + GDNF 10 ng/ml

CC(=O)O[C@@H]1C[C@H]2C(C)(C)[C@H](O)C[C@H](O)[C@]2(C)[C@H]2CC[C@@]3(C)[C@H](c4ccoc4)OC(=O)[C@H]4O[C@]43[C@@]21C
neuronal differentiation score ([1]; library: Spectrum): inactive: 0 | dopaminergic neuron differentiation score ([2]; library: Spectrum): inactive: 0

CC(C)[C@H](NS(=O)(=O)c1ccc(-c2ccc(Br)cc2)cc1)C(=O)O
neuronal differentiation score ([1]; library: Tocriscreen): inactive: 0 | dopaminergic neuron differentiation score ([2]; library: Tocriscreen): inactive: 0

CC(C)=CCC/C(C)=C/CC/C(C)=C/CC/C(C)=C/CC/C(C)=C/CC1=C(C)C(=O)c2ccccc2C1=O [Menaquinone]
neuronal differentiation score ([1]; library: Phytochemical): inactive: 0 | dopaminergic neuron differentiation score ([2]; library: Phytochemical): inactive: 0

O=C(O[C@@H]1Cc2c(O)cc(O)cc2O[C@@H]1c1ccc(O)c(O)c1)c1cc(O)c(O)c(O)c1
neuronal differentiation score ([1]; library: Spectrum): inactive: 0 | dopaminergic neuron differentiation score ([2]; library: Spectrum): inactive: 0

CN1CCCN=C1/C=C/c1cccc(O)c1 [Oxantel pamoate]
neuronal differentiation score ([1]; library: Prestwick): inactive: 0 | dopaminergic neuron differentiation score ([2]; library: Prestwick): inactive: 0

C=C1C[C@H]2[C@@H]3C=C(C)C4=CC(=O)CC[C@]4(C)[C@H]3CC[C@]2(C)[C@@]1(OC(C)=O)C(C)=O
neuronal differentiation score ([1]; library: Spectrum): inactive: -1 | dopaminergic neuron differentiation score ([2]; library: Spectrum): inactive: 0

COc1cnc(NS(=O)(=O)c2ccc(N)cc2)nc1 [Sulfameter]
neuronal differentiation score ([1]; library: Prestwick): inactive: 0 | dopaminergic neuron differentiation score ([2]; library: Prestwick): inactive: 0

CCN(CC)CCOc1ccc2c(c1)C(=O)c1cc(OCCN(CC)CC)ccc1-2
neuronal differentiation score ([1]; library: Spectrum): inactive: 0 | dopaminergic neuron differentiation score ([2]; library: Spectrum): inactive: 0

Cc1ccc(/C=N/NC(=O)c2ccccc2Oc2ccccc2)o1
neuronal differentiation score ([1]; library: Tocriscreen): inactive: 0 | dopaminergic neuron differentiation score ([2]; library: Tocriscreen): inactive: 0

OCc1ccccc1O
neuronal differentiation score ([1]; library: Spectrum): inactive: 0 | dopaminergic neuron differentiation score ([2]; library: Spectrum): inactive: 0

CC(=O)OCC(CCn1cnc2cnc(N)nc21)COC(C)=O [Famciclovir]
neuronal differentiation score ([1]; library: Prestwick): inactive: 0 | dopaminergic neuron differentiation score ([2]; library: Prestwick): inactive: 0

CN1CC[C@]23c4ccccc4N[C@H]1[C@]21CCN(C)[C@H]3Nc2ccccc21 [Calycanthine]
neuronal differentiation score ([1]; library: Phytochemical): inactive: 1 | dopaminergic neuron differentiation score ([2]; library: Phytochemical): inactive: 0

CCC(=O)NC[C@H](Cc1ccc(OCCc2nc(-c3ccccc3)oc2C)cc1)N/C(C)=C\C(=O)c1ccc(C(F)(F)F)cc1
neuronal differentiation score ([1]; library: Tocriscreen): inactive: 0 | dopaminergic neuron differentiation score ([2]; library: Tocriscreen): inactive: 0

CC(C)=CC1C(CO)C1(C)C (stereo not drawn)
neuronal differentiation score ([1]; library: Spectrum): inactive: 0 | dopaminergic neuron differentiation score ([2]; library: Spectrum): inactive: 0

O=c1c2cc(O)c(O)cc2oc2cc(O)c([C@@H]3O[C@H](CO)[C@@H](O)[C@H](O)[C@H]3O)c(O)c12
neuronal differentiation score ([1]; library: Spectrum): inactive: 0 | dopaminergic neuron differentiation score ([2]; library: Spectrum): inactive: 0

N[C@@H](CCCC(=O)O)C(=O)O [L-2-aminoadipic acid]
neuronal differentiation score ([1]; library: LOPAC): inactive: 0 | dopaminergic neuron differentiation score ([2]; library: LOPAC): inactive: 0

CC(=O)Oc1cc2c(s1)CCN(C(C(=O)C1CC1)c1ccccc1F)C2 (stereo not drawn)
neuronal differentiation score ([1]; library: Spectrum): inactive: 0 | dopaminergic neuron differentiation score ([2]; library: Spectrum): inactive: 0

O=c1[nH]cnc2nc[nH]c12
neuronal differentiation score ([1]; library: Spectrum): inactive: 0 | dopaminergic neuron differentiation score ([2]; library: Spectrum): inactive: 0

Cc1cc(O)c(C=O)c2c1C(=O)Oc1c(COC(=O)/C=C/C(=O)O)c(O)c(C(=O)O)c(C)c1O2
neuronal differentiation score ([1]; library: Spectrum): inactive: 0 | dopaminergic neuron differentiation score ([2]; library: Spectrum): inactive: 0

O=C(CCCCCCC(=O)Nc1ccccc1)NO [Vorinostat]
neuronal differentiation score ([1]; library: Prestwick): inactive: 0 | dopaminergic neuron differentiation score ([2]; library: Prestwick): inactive: 0

CCSC(=N)N [EIT hydrobromide]
neuronal differentiation score ([1]; library: Tocriscreen): inactive: 0 | dopaminergic neuron differentiation score ([2]; library: Tocriscreen): inactive: 0

N#C/C(=C\c1ccc(O)c(O)c1)C(=O)NCCCNC(=O)/C(C#N)=C/c1ccc(O)c(O)c1 [Tyrphostin AG 537]
neuronal differentiation score ([1]; library: LOPAC): inactive: 0 | dopaminergic neuron differentiation score ([2]; library: LOPAC): inactive: 1

Cc1cc2nc3ccc(N(C)C)cc3[s+]c2cc1N
neuronal differentiation score ([1]; library: Spectrum): inactive: 0 | dopaminergic neuron differentiation score ([2]; library: Spectrum): inactive: 0

N#Cc1ccc2c(c1)N(CCCN1CCC(O)CC1)c1ccccc1S2
neuronal differentiation score ([1]; library: Spectrum): inactive: 0 | dopaminergic neuron differentiation score ([2]; library: Spectrum): inactive: 0

O=c1oc2cc(O)ccc2s1
neuronal differentiation score ([1]; library: Spectrum): inactive: 0 | dopaminergic neuron differentiation score ([2]; library: Spectrum): inactive: 0

COc1ccc(CC(C)NCC(O)c2ccc(O)c(NC=O)c2)cc1 (stereo not drawn) [Formoterol]
neuronal differentiation score ([1]; library: LOPAC): inactive: -1 | dopaminergic neuron differentiation score ([2]; library: LOPAC): inactive: 0

O=c1[nH]cc(F)c(=O)[nH]1 [5-fluorouracil]
neuronal differentiation score ([1]; library: Prestwick): inactive: 0 | dopaminergic neuron differentiation score ([2]; library: Prestwick): inactive: 0

CN(C)C(=N)NC(=N)N
neuronal differentiation score ([1]; library: Spectrum): inactive: 0 | dopaminergic neuron differentiation score ([2]; library: Spectrum): inactive: 0

CC1(C)Oc2ccc(C#N)cc2[C@H](N2CCCC2=O)[C@H]1O [Cromakalim]
neuronal differentiation score ([1]; library: Tocriscreen): inactive: 0 | dopaminergic neuron differentiation score ([2]; library: Tocriscreen): inactive: 0

CCCc1c(-c2ccc(O)cc2)nn(-c2ccc(O)cc2)c1-c1ccc(O)cc1 [1,3,5-tris(4-hydroxyphenyl)-4-propyl-1H-pyrazole]
neuronal differentiation score ([1]; library: LOPAC): inactive: 0 | dopaminergic neuron differentiation score ([2]; library: LOPAC): inactive: 0

OC1COC2C(O)COC12 (stereo not drawn) [1,4:3,6-dianhydromannitol]
neuronal differentiation score ([1]; library: Natural): inactive: 0 | dopaminergic neuron differentiation score ([2]; library: Natural): inactive: 0

CCCCC(=O)O[C@]1(C(=O)CO)[C@@H](C)C[C@H]2[C@@H]3CCC4=CC(=O)C=C[C@]4(C)[C@@]3(F)[C@@H](O)C[C@@]21C
neuronal differentiation score ([1]; library: Spectrum): inactive: 0 | dopaminergic neuron differentiation score ([2]; library: Spectrum): inactive: 0

N[C@@H](CCC(=O)N[C@@H](CS)C(=O)NCC(=O)O)C(=O)O
neuronal differentiation score ([1]; library: Spectrum): inactive: 0 | dopaminergic neuron differentiation score ([2]; library: Spectrum): inactive: 0

NCCC[C@H](N)CC(=O)N[C@H]1CNC(=O)[C@H]([C@H]2C[C@H](O)NC(N)=N2)NC(=O)/C(=C/NC(N)=O)NC(=O)[C@H](CO)NC(=O)[C@H](CO)NC1=O [Viomycin sulfate] (β3hOrn-[Dap]SS[ΔAla(Z-3-ureido)][X1]; lactam 1-C)
neuronal differentiation score ([1]; library: Prestwick): inactive: 0 | dopaminergic neuron differentiation score ([2]; library: Prestwick): inactive: 0
